# Primary screen of a compound library

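Viability assay of Plasmodium falciparum sporozoites; the read-out is not stated. The concentration is filed as 10 mM, unlikely as a test dose, so the dose is not known. Higher reads as lower viability (inferred: compounds with an IC50 in retests scored well above the rest). Strong results were mostly tested again. Of about 34,000 compounds tested this way, about 280 (0.84%) reached 50% or more in at least one test.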

Results are given as percent effect. How 0% and 100% were set is not recorded. Most values in the screen are low, and negative values occur. Compounds were drawn at random from those tested, without regard to their results.

compound | percent effect
CN(CCCC#N)C1CCCN(Cc2noc(C3CC3)n2)C1 (stereo not given) | 13.21%
COCCC(=O)Nc1ccnc(Oc2ccccc2)c1 | -17.25%
O=C(NCCn1ccnc1)c1ccn(-c2cccc(F)c2)n1 | -6.112%
c1ccc(Cc2nc(CN3CCCC3Cn3cncn3)cs2)cc1 (stereo not given) | 15.48%
CN(C)CCN(C)c1cc(N2CCN(c3ccccn3)CC2)ncn1 | -8.534%
Cn1cccc1C(=O)N1CCC2(CC1)CN(c1cncnc1)C(=O)CO2 | -11.42%
CCc1cc(CN(C)C(=O)CN2CC(Cc3ccccc3)CC2=O)on1 (stereo not given) | -11.94%
Cn1nc(Cn2cccn2)c2c1CN(Cc1ccsc1)C2.O=C(O)C(F)(F)F | 0.3552%
Cc1cccc(-c2noc(CN3CCCC3Cn3cccn3)n2)c1 (stereo not given) | -3.431%
CCc1ccc(NS(=O)(=O)CC2=NC(=O)n3cccc3C2=O)cc1 | 1.096%
O=C(NCCCN1CCCCCC1=O)c1n[nH]c(=O)c2ccccc12 | 4.596%
CC(C)N(C)Cc1cc(=O)n2c(n1)CN(C(=O)c1ccnnc1)CCC2 | 3.466%
CC(C)(O)CSCCNCc1ccc(Cl)c2cccnc12 | 10.19%
CC(C)(N)C(=O)N1CCC(c2nccnc2Oc2cccc(F)c2)CC1 | 4.184%
CCOc1ccccc1N(C)C(=O)c1ccc(Cl)cn1 | -0.1095%
CCCn1nccc1-c1cc(C2CCN(S(C)(=O)=O)CC2)nc(C)n1 | 5.578%
O=C(O)C(F)(F)F.O=C1Nc2ccccc2C12CCN(Cc1cccs1)CC2 | 2.364%
COc1cccc(S(=O)(=O)Cc2noc(CC(C)C)n2)c1 | 0.333%
Cc1nc(CN2CCC3(C2)CN(C(=O)c2ccc[nH]2)C3)cs1 | 8.581%
COC(=O)c1ccoc1CN(C)CC(=O)N(C)C | 10.47%
COc1ccc(COCC(O)CNC(=O)c2cnc(C)cn2)cc1 (stereo not given) | -16.47%
CCC(C)(CO)NC(=O)Nc1cc2c(cc1SC)OCCO2 (stereo not given) | -7.219%
O[C@H]1CN(Cc2ccc3c(c2)OCCO3)CC[C@@]12CCCO2 | 1.966%
Cc1csc2c(N3CCNC(C(=O)N4CCCC4)C3)ncnc12 (stereo not given) | -5.385%
Cc1occc1C(=O)N1CCc2c(CNc3ncccn3)cncc2C1.Cl | 8.081%
O=C(O)C(F)(F)F.O=C(O)C(F)(F)F.[H][C@@]12CCCO[C@]1([H])[C@H](N(C)Cc1ccco1)CN(Cc1ccc(F)cc1)C2 | 4.139%
C=C(C)CN1CCN(Cc2cnc(-c3ccc(OC)cc3)nc2)CC1.O=C(O)CC(O)(CC(=O)O)C(=O)O | -11.56%
Cc1oc(-c2ccco2)nc1CNC1CCCN(c2cccnn2)C1 (stereo not given) | -0.4233%
Cc1noc(C)c1CCC(=O)N1CCCN(C)CC1 | -0.4965%
Cc1cccc(C(=O)N2CCCCC2c2nc(C)cs2)n1 (stereo not given) | 1.262%
CNC(=O)c1cc(-c2ccccc2OC)[nH]n1 | -24.8%
CN1C(=O)Cc2cc(-c3csc(CCN4CCOC4=O)n3)ccc21 | 11.8%
CC(NCc1c(C(C)C)nn(C)c1N1CCOCC1)C(N)=O (stereo not given) | -2.738%
CN(C)[C@@H]1CN(C(=O)COc2cccc(F)c2)C[C@H]1O | -0.3347%
Cc1ccc(-c2nc(CN3CCOC(Cn4cccn4)C3)no2)cc1 (stereo not given) | -7.788%
Cc1ccc(C2COCCN2C(=O)c2ccc(CN(C)C)cc2)o1 (stereo not given) | -1.288%
O=C(C1CC1)N1CC2(CCN(CC3CC3)CC2)c2cc(F)ccc21.O=C(O)C(F)(F)F | -2.908%
Cn1nnc2c1CCN(S(C)(=O)=O)C2COCc1ccccc1 (stereo not given) | 7.378%
CC(=O)N1CCC(c2ccnc(Nc3cncnc3)n2)CC1 | 6.412%
Cc1nccn1C1CCCN(C(=O)c2cccc(OCC(N)=O)c2)C1 (stereo not given) | -0.03409%
O=C(C1CCOCC1)N1CCCC1c1cncc(CN2CCCC2)n1 (stereo not given) | 6.853%
COCCNC(=O)N1CCN(C(=O)c2nsc3ccc(C)cc23)CC1 | -10.08%
CN(CC(=O)N1CCCC1)C(=O)Cc1csc(-c2ncccn2)n1 | 0.3641%
COCCO[C@H]1CCN(Cc2cccnc2)[C@H]1Cc1cccnc1.O=C(O)C(F)(F)F.O=C(O)C(F)(F)F.O=C(O)C(F)(F)F | 8.333%
CC1(C)OCC(CNC(=O)c2cnn(-c3cc(Cl)ccc3Cl)c2N)O1 (stereo not given) | -8.716%
Cc1noc(C)c1CN1CCCC2(CCN(C(=O)N3CCOCC3)C2)C1 (stereo not given) | -15.16%

From ChEMBL document CHEMBL3988442, “University of Dundee, Small-Polar-MMV Screening Library” (2021).